PubChem BioAssay AID1508588 | Peter MacCallum Cancer Centre – 2020
This is a random part of about 18,000 reagents tested. In the full data, 790 (4.4%) got an active call. 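Calls rest on a combination of fold-change classes in drug and vehicle arms, not all shown here.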 Entries without a mark were called inactive.

- Test: 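Genome-wide search for knock-downs that heighten vemurafenib action in melanoma cells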 (primary screen)
- Cell system: human WM266.4 melanoma cells (BRAF V600 mutant)
- Reagents: siRNA pool against human genes, 40 nM
- Duration: 96 h from transfection to read-out
- Challenge: vemurafenib 300 nM (about IC25), added 48 h after transfection, for 48 h; comparison arm got DMSO vehicle only
- Detection: 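Ratios to non-targeting siRNA for cell gain, counted as DAPI nuclei after minus before drug and averaged over two replicates, and for absorbance-read medium lactate per cell; both binned into fold-change classes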
- Direction: cell gain with vemurafenib: higher = more cell gain than with non-targeting siRNA; lactate per cell with vemurafenib: higher = more lactate made per cell
- Active means: 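a knock-down counts as enhancing when its fold-change classes with vehicle and with vemurafenib, taken together, show a stronger drug effect on cell gain or lactate per cell; exact class pairs not stated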
- Meaning of the calls: active = enhances vemurafenib effect; inactive = no enhancement seen

gene knocked down | cell gain with vemurafenib | lactate per cell with vemurafenib
TAF10 | 0.67 | 0.58
RUSC2 | 0.02 | 1.22
STYXL2 | 0.76 | 0.76
NPHS2 | 0.69 | 0.52
GSTK1 | 0.61 | 1.2
TMPRSS6 | 0.53 | 1.26
CYP26A1 | 0.76 | 1.2
SAMD15 | 0.98 | 0.62
MZT2B | 0.3 | 2.24
CD74 | 0.72 | 0.95
APOM | 0.49 | 0.93
ZP2 | 0.53 | 1.87
NET1 | 0.34 | 1.25
GSTA1 | 0.37 | 1.12
ALKAL1 | 0.99 | 0.8
RAB4A | 0.92 | 1.1
ZNF20 | 0.33 | 0.74
ZNF767P | 0.5 | 1.8
FCMR | 0.35 | 0.72
TKTL1 | 0.36 | 0.82
OR51M1 | 0.38 | 1.92
SAA2 | 0.82 | 1.2
MARCHF11 | 0.69 | 0.42
NEK5 | 1.01 | 0.96
ZNF780A | 0.85 | 1.1
PAGE2B | 0.96 | 0.28
SV2A | 0.92 (active) | 0.48
ZNF547 | -0.15 | 0.89
CEP170B | 0.73 | 0.84
FLI1 | 0.57 | 1.2
HNRNPA0 | 0.92 | 1.44
TEKTL1 | 0.65 | 1.29
TANC1 | 0.87 | 0.68
SOWAHC | 0.51 | 1.53

Laid out differently: 6 of the entries above
gene knocked down,cell gain with vemurafenib,lactate per cell with vemurafenib
STYXL2,0.76,0.76
NPHS2,0.69,0.52
GSTK1,0.61,1.2
TMPRSS6,0.53,1.26
CYP26A1,0.76,1.2
SAMD15,0.98,0.62
